{"source": "paper PMC5379037", "molecular_target": "basic leucine zipper 63 (bZIP63) transcription factor, BiFC constructs (UniProt B9DGI8)", "experiment": "split reporter; split YFP (YFP-N 1-155, YFP-C 155-239) constructs co-expressed in hot pepper protoplasts by PEG-mediated transformation; YFP signal read by fluorescence microscopy", "note": "These are yes or no findings as the source states them, for the method shown. In cells and extracts the contact can be indirect. Some entries that bind do so weakly or less than the wild type."}
{"binder": "basic leucine zipper 63 (bZIP63) transcription factor, BiFC constructs (protein, UniProt B9DGI8 1-314) MEKVFSDEEISGNHHWSVNGMTSLNRSASEWAFNRFIQESSAAADDGESTTACGVSVSSPPNVPVDSEEYRAFLKSKLNLACAAVAMKRGTFIKPQDTSGRSDNGGANESEQASLASSKATPMMSSAITSGSELSGDEEEADGETNMNPTNVKRVKRMLSNRESARRSRRRKQAHLSELETQVSQLRVENSKLMKGLTDVTQTFNDASVENRVLKANIETLRAKVKMAEETVKRLTGFNPMFHNMPQIVSTVSLPSETSNSPDTTSSQVTTPEIISSGNKGKALIGCKMNRTASMRRVESLEHLQKRIRSVGDQ", "values": [{"measurement": "binding", "result": "binds"}]}
